Data as given in PubChem BioAssay AID1224826 (NIAID, 2016)
The whole screen tested about 17,000 reagents; this is an unselected part. Of all reagents, about 1,110 (6.6%) were called active. 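Active means lowered or raised reporter signal; replicate intensities are raw and not normalised per plate.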 Unmarked entries are inactive. Reagents against one gene are numbered here. Further read-outs or replicates are left out here.

Test: 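Genes that change LPS-induced Tnf promoter activity in mouse macrophages when knocked down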 (primary screen)
System: RAW264.7 G9 macrophages from mouse bearing reporters for p65 (GFP) and the Tnf promoter (mCherry)
Knock-down reagent: siRNA pool against mouse genes, 100 nM
Time to read-out: 16 h of LPS stimulation, after 2 days of siRNA transfection
Treatment: bacterial lipopolysaccharide (Salmonella minnesota R595), 10 ng/ml
Measured: 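Nuclear mCherry signal of the Tnf promoter reporter measured by imaging after background removal, scaled to each plate median and turned into robust z-scores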
Reading the numbers: Tnf reporter robust z-score: higher = stronger Tnf promoter reporter signal after LPS
Active means: 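a well counts as active at a score of -1.3 or below (Tlr4 knock-down control median) or above 3 (raised signal); controls and wells holding fewer than 50 cells are excluded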
Meaning of the calls: active = Tnf reporter clearly lowered or raised; inactive = no clear change in Tnf reporter

gene,pool no.,Tnf reporter robust z-score,fewer than 50 cells in well
"Sec24c (SEC24 homolog C, COPII coat complex component)",1,,fewer than 50 cells per well; well left out of calls
"Ets2 (Ets proto-oncogene 2, transcription factor)",1,-0.27,enough cells in well
"Cyp2c38 (cytochrome P450, family 2, subfamily c, polypeptide 38)",1,0.93,enough cells in well
Plekhm3 (pleckstrin homology and RUN domain containing M3),1,1.02,enough cells in well
Skint4 (selection and upkeep of intraepithelial T cells 4),1,-1.22,enough cells in well
"Xpot (exportin, tRNA (nuclear export receptor for tRNAs))",1,0.29,enough cells in well
Or51i2 (olfactory receptor family 51 subfamily I member 2),1,2.74,enough cells in well
Plagl1 (pleiomorphic adenoma gene-like 1),1,-0.38,enough cells in well
"Fam177a (family with sequence similarity 177, member A)",1,3.95 (active),enough cells in well
"Col3a1 (collagen, type III, alpha 1)",1,0.1,enough cells in well
Adamts1 (ADAM metallopeptidase with thrombospondin type 1 motif 1),1,,fewer than 50 cells per well; well left out of calls
Ccng2 (cyclin G2),1,1.04,enough cells in well
Prss50 (serine protease 50),1,,fewer than 50 cells per well; well left out of calls
Shisa2 (shisa family member 2),1,-0.01,enough cells in well
"Myl12a (myosin, light chain 12A, regulatory, non-sarcomeric)",1,,fewer than 50 cells per well; well left out of calls
Hcn1,1,0.3,enough cells in well
Kcnj15,1,0.6,enough cells in well
Dram2 (DNA-damage regulated autophagy modulator 2),1,0.57,enough cells in well
Map2 (microtubule-associated protein 2),1,0.44,enough cells in well
Mecom (MDS1 and EVI1 complex locus),1,-0.51,enough cells in well
Mecom (MDS1 and EVI1 complex locus),2,-0.51,enough cells in well
Emc1 (ER membrane protein complex subunit 1),1,,fewer than 50 cells per well; well left out of calls
"Sf3b2 (splicing factor 3b, subunit 2)",1,,fewer than 50 cells per well; well left out of calls
Coq9 (coenzyme Q9),1,2.28,enough cells in well
"Aaas (achalasia, adrenocortical insufficiency, alacrimia)",1,0.39,enough cells in well
Tbrg4 (transforming growth factor beta regulated gene 4),1,-0.76,enough cells in well
Pramel6 (PRAME like 6),1,2.12,enough cells in well
"Gjb5 (gap junction protein, beta 5)",1,0.5,enough cells in well
"Serpinf2 (serine (or cysteine) peptidase inhibitor, clade F, member 2)",1,-0.51,enough cells in well
Tmem167b (transmembrane protein 167B),1,0.32,enough cells in well
9430097D07Rik (RIKEN cDNA 9430097D07 gene),1,0.84,enough cells in well
Elfn2,1,-1.15,enough cells in well

Laid out differently: 5 of the entries above
| gene | pool no. | Tnf reporter robust z-score | fewer than 50 cells in well |
| --- | --- | --- | --- |
| Aaas (achalasia, adrenocortical insufficiency, alacrimia) | 1 | 0.39 | enough cells in well |
| Tbrg4 (transforming growth factor beta regulated gene 4) | 1 | -0.76 | enough cells in well |
| Pramel6 (PRAME like 6) | 1 | 2.12 | enough cells in well |
| Gjb5 (gap junction protein, beta 5) | 1 | 0.5 | enough cells in well |
| Serpinf2 (serine (or cysteine) peptidase inhibitor, clade F, member 2) | 1 | -0.51 | enough cells in well |

The list goes on.
gene,pool no.,Tnf reporter robust z-score,fewer than 50 cells in well
"Mta2 (metastasis-associated gene family, member 2)",1,0.93,enough cells in well
Hcrtr2 (hypocretin (orexin) receptor 2),1,0.11,enough cells in well
Cenpi (centromere protein I),1,0.27,enough cells in well
Mfn2 (mitofusin 2),1,-1.1,enough cells in well
Foxl2 (forkhead box L2),1,-0.6,enough cells in well
Hrh3 (histamine receptor H3),1,0.16,enough cells in well
Chmp2b (charged multivesicular body protein 2B),1,0.34,enough cells in well
Taok1 (TAO kinase 1),1,0.19,enough cells in well
Psap (prosaposin),1,-0.02,enough cells in well
Otop1 (otopetrin 1),1,-0.45,enough cells in well
"Tnfrsf22 (tumor necrosis factor receptor superfamily, member 22)",1,,fewer than 50 cells per well; well left out of calls
"Tnfrsf22 (tumor necrosis factor receptor superfamily, member 22)",2,0.95,enough cells in well
BC030500 (cDNA sequence BC030500),1,-0.14,enough cells in well
Arih2 (ariadne RBR E3 ubiquitin protein ligase 2),1,-0.09,enough cells in well
Kirrel1 (kirre like nephrin family adhesion molecule 1),1,-0.66,enough cells in well
Kirrel1 (kirre like nephrin family adhesion molecule 1),2,0.55,enough cells in well
Pira1 (paired-Ig-like receptor A1),1,0.87,enough cells in well
Nell2 (NEL-like 2),1,-0.77,enough cells in well
Zhx2 (zinc fingers and homeoboxes 2),1,-1.42 (active),enough cells in well
"Thsd7b (thrombospondin, type I, domain containing 7B)",1,-0.12,enough cells in well
Pitx2 (paired-like homeodomain transcription factor 2),1,0.74,enough cells in well
Vamp1 (vesicle-associated membrane protein 1),1,-1.2,enough cells in well
Slc44a3,1,1.35,enough cells in well
Krtap13-20 (keratin associated protein 13-20),1,,fewer than 50 cells per well; well left out of calls
Or5d47 (olfactory receptor family 5 subfamily D member 47),1,-0.11,enough cells in well
"Pmepa1 (prostate transmembrane protein, androgen induced 1)",1,,fewer than 50 cells per well; well left out of calls
